The list does not hold the whole screen: it is rich in T/C values a quarter to a half above the control, in often repeated tests (any T/C) and in doses without a T/C. Further doses and runs are listed elsewhere. T/C gives the treated animals as a percentage of the vehicle group. Some doses have a count of surviving animals in place of a T/C: the source files T/C as zero there, which appears to mark a toxic dose or a test without result, not a measured value. Some survivor counts are full or nearly so, which does not show that the dose was tolerated: survival well below the control is almost never listed, so the zero probably covers shortened survival too. Survivors were counted at the toxicity check, usually on the fifth day, unless a day is given; later deaths do not show. Schedules are NCI's codes, taken here to give the interval after Q, in days (D) or hours (H), and the number of doses after X. Some entries were tested several times; the results are listed from low to high. Marks such as (2×) stand for listed records that agree. Where survival is the endpoint, this PubChem deposit counts one and a half times the control or more as active, and values a quarter to a half above the control carry no call in these data; other NCI protocols may use other cut-offs. Some T/C values are followed by the survivors on the day toxicity was checked, most often the fifth; where none is given, no animal had died by that day.
System: B6C3F1 mice, ip Sarcoma M5076, median survival T/C
Assay: NCI In Vivo Anticancer Drug Screen. Data for tumor model Sarcoma M5076 (intraperitoneal) in B6C3F1 mice
Details: T/C endpoint: median survival time, higher T/C = longer survival
Procedure, shortened: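 Transplantable tumour in mice; compound-treated vs vehicle-treated groups. Read-out: survival. Value = treated/control ratio.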

[1] = dose: 100.0 mg/kg/injection, schedule: Q04DX004 (ip), vehicle: saline
[2] = dose: 800.0 mg/kg/injection, schedule: Q04DX004 (ip), vehicle: saline
[3] = dose: 400.0 mg/kg/injection, schedule: Q04DX004 (ip), vehicle: saline
[4] = dose: 800.0 mg/kg/injection, schedule: Q04DX004 (ip), vehicle: saline with Tween-80
[5] = dose: 800.0 mg/kg/injection, schedule: Q04DX005 (ip), vehicle: saline
[6] = dose: 800.0 mg/kg/injection, schedule: Q04DX004 (ip), vehicle: Klucel (hydroxypropylcellulose) (HPC)
[7] = dose: 25.0 mg/kg/injection, schedule: Q04DX004 (ip), vehicle: saline with Tween-80
[8] = dose: 200.0 mg/kg/injection, schedule: Q04DX004 (ip), vehicle: saline with Tween-80
[9] = dose: 100.0 mg/kg/injection, schedule: Q04DX004 (ip), vehicle: saline with Tween-80
[10] = dose: 200.0 mg/kg/injection, schedule: Q04DX004 (ip), vehicle: saline
[11] = dose: 400.0 mg/kg/injection, schedule: Q04DX004 (ip), vehicle: saline with Tween-80

`C1OC1CO[C@@H]1CO[C@H]2[C@@H]1OC[C@H]2OCC1CO1` (some centres undefined) was tested. Which T/C [1] did it give?
The T/C was 135 % of control.

What about the survivor count [2] of the same compound?
Its survivor count is 0 of 10 on day 14.

And the survivor count (dose: 800.0 mg/kg/injection, schedule: Q04DX004 (ip), vehicle: suspension in saline)?
Its survivor count is 0 of 10 on day 9.

How did the T/C (dose: 100.0 mg/kg/injection, schedule: Q04DX004 (ip), vehicle: saline, evaluated on day 60) turn out when `Nc1nncs1` was run?
The T/C was 120 % of control.

What about the T/C (dose: 100.0 mg/kg/injection, schedule: Q04DX004 (ip), vehicle: saline, evaluated on day 75) of the same compound?
The T/C was 103, 105, 112, 117 [9 of 10 alive], 122 [9 of 10 alive on day 14], 123 % of control.

What about the T/C (dose: 100.0 mg/kg/injection, schedule: Q04DX005 (ip), vehicle: saline) of the same compound?
The T/C was 130 % of control.

What about the T/C (dose: 200.0 mg/kg/injection, schedule: Q04DX004 (ip), vehicle: saline, evaluated on day 60) of the same compound?
The T/C was 138 % of control.

What about the T/C (dose: 200.0 mg/kg/injection, schedule: Q04DX004 (ip), vehicle: saline, evaluated on day 75) of the same compound?
The T/C was 112, 115, 120 [9 of 10 alive on day 14], 125 (2×), 138 % of control.

And the T/C (dose: 200.0 mg/kg/injection, schedule: Q04DX005 (ip), vehicle: saline)?
The T/C was 125 % of control.

And the T/C (dose: 400.0 mg/kg/injection, schedule: Q04DX004 (ip), vehicle: saline, evaluated on day 60)?
The T/C was 141 % of control.

What about the T/C (dose: 400.0 mg/kg/injection, schedule: Q04DX004 (ip), vehicle: saline, evaluated on day 75) of the same compound?
Its T/C is 118 (2×), 120, 122, 129 % of control.

What about the survivor count [3] of the same compound?
Its survivor count is 9 of 10 on day 14.

And the T/C (dose: 400.0 mg/kg/injection, schedule: Q04DX005 (ip), vehicle: saline with Tween-80)?
Its T/C is 128 % of control.

And the T/C (dose: 400.0 mg/kg/injection, schedule: Q04DX005 (ip), vehicle: saline)?
The T/C was 128 and 134 % of control.

What about the T/C [4] of the same compound?
The T/C was 126 % of control.

What about the T/C [2] of the same compound?
The T/C was 119, 122, 126, 153, 163 % of control.

What about the survivor count [2] of the same compound?
The survivor count was 10 of 10 and 10 of 10 on day 14.

And the T/C (dose: 800.0 mg/kg/injection, schedule: Q04DX005 (ip), vehicle: saline with Tween-80)?
Its T/C is 132 % of control.

What about the T/C [5] of the same compound?
The T/C was 129 % of control.

What about the survivor count [5] of the same compound?
Its survivor count is 10 of 10.

How did the T/C (dose: 50.0 mg/kg/injection, schedule: Q04DX004 (ip), vehicle: distilled water + Tween-80) turn out when `COC1C(CO)OC(n2c3c(Cl)cccc3c3c4c(c5c6cccc(Cl)c6[nH]c5c32)C(=O)NC4=O)C(O)C1O` (centres undefined) was run?
Its T/C is 128 % of control.

What about the T/C (dose: 187.0 mg/kg/injection, schedule: Q04DX004 (ip), vehicle: distilled water + Tween-80) of the same compound?
The T/C was 126 % of control.

And the T/C (dose: 200.0 mg/kg/injection, schedule: Q04DX004 (ip), vehicle: distilled water + Tween-80)?
Its T/C is 136 % of control.

And the T/C (dose: 400.0 mg/kg/injection, schedule: Q04DX004 (ip), vehicle: distilled water + Tween-80)?
The T/C was 132 and 136 % of control.

What about the survivor count (dose: 800.0 mg/kg/injection, schedule: Q04DX004 (ip), vehicle: distilled water + Tween-80) of the same compound?
The survivor count was 3 of 8 on day 14.

Which survivor count (dose: 125.0 mg/kg/injection, schedule: Q04DX004 (ip), vehicle: saline with Tween-80) does the source give for `COc1cc(C(CC(C)=O)c2cc3c(cc2OC(C)=O)OCO3)cc(OC)c1OC` (centres undefined) (tested in a mixture with another compound) here?
The survivor count was 6 of 10 on day 14.

And the survivor count (dose: 208.33 mg/kg/injection, schedule: Q04DX004 (ip), vehicle: saline with Tween-80)?
Its survivor count is 2 of 10 on day 14.

Which survivor count [6] does the source give for `Cc1ccc(C)c(NC(=O)C2C(=O)C(=O)N(c3cc(C)ccc3C)C2=O)c1` (centres undefined) here?
Its survivor count is 0 of 10 on day 14.

`COc1cc(C#N)c(NC(=S)N2CCN(C(=O)c3ccco3)CC2)cc1OC` was tested. Which survivor count [6] did it give?
The survivor count was 3 of 10 on day 14.

With `Cc1ccc(/C=C2/N=C([Se])N(C)C2=O)cc1` as the compound, how does the survivor count (dose: 300.0 mg/kg/injection, schedule: Q04DX004 (ip), vehicle: saline with Tween-80) read?
The survivor count was 8 of 10 on day 14.

What about the survivor count (dose: 600.0 mg/kg/injection, schedule: Q04DX004 (ip), vehicle: saline with Tween-80) of the same compound?
The survivor count was 2 of 10 on day 14.

Which T/C (dose: 12.5 mg/kg/injection, schedule: Q04DX004 (ip), vehicle: Klucel (hydroxypropylcellulose) (HPC)) does the source give for `CN(C)N=Nc1ccccc1` here?
Its T/C is 141 % of control.

And the T/C (dose: 25.0 mg/kg/injection, schedule: Q04DX004 (ip), vehicle: Klucel (hydroxypropylcellulose) (HPC))?
Its T/C is 131 % of control.

And the T/C (dose: 50.0 mg/kg/injection, schedule: Q04DX004 (ip), vehicle: Klucel (hydroxypropylcellulose) (HPC))?
The T/C was 147 % of control.

What about the survivor count (dose: 100.0 mg/kg/injection, schedule: Q04DX004 (ip), vehicle: Klucel (hydroxypropylcellulose) (HPC)) of the same compound?
Its survivor count is 4 of 10 on day 14.

What about the survivor count (dose: 200.0 mg/kg/injection, schedule: Q04DX004 (ip), vehicle: Klucel (hydroxypropylcellulose) (HPC)) of the same compound?
Its survivor count is 0 of 10 on day 14 (2×).

Which survivor count [7] does the source give for `O=c1[nH]c2cc3c(cc2n2cccc12)oc1ccccc13` here?
Its survivor count is 10 of 10 on day 14.

What about the survivor count [8] of the same compound?
Its survivor count is 9 of 10 on day 14.

For `COCCCn1c(C(Cl)(Cl)Cl)nn2c(=O)c3ccccc3nc2c1=O`, which survivor count [4] is on record?
Its survivor count is 10 of 10 on day 14.

For `CCN(CC)CC(=O)O[C@]1(CC)C(=O)OCc2c1cc1n(c2=O)Cc2cc3ccccc3nc2-1`, which T/C (dose: 16.0 mg/kg/injection, schedule: Q04DX004 (ip), vehicle: water) is on record?
Its T/C is 129 [9 of 10 alive on day 14] and 133 % of control.

What about the survivor count (dose: 32.0 mg/kg/injection, schedule: Q04DX004 (ip), vehicle: water) of the same compound?
The survivor count was 1 of 10 on day 14 and 6 of 10 on day 14.

Which results are given for `COc1cc2c(c3c1/c(=N\N=c1/c4ccccc4n(C)c4c5c(cc(OC)c14)OC(C)(C)C=C5)c1ccccc1n3C)C=CC(C)(C)O2`?
survivor count [7]: 6 of 10 on day 14; survivor count (dose: 50.0 mg/kg/injection, schedule: Q04DX004 (ip), vehicle: saline with Tween-80): 5 of 10 on day 14; survivor count [9]: 3 of 10 on day 14; survivor count [8]: 0 of 10 on day 14

How did the survivor count [10] turn out when `NCCCNCCCCNC(=O)C(O)NC(=O)CC(O)CCCCN=C(N)N` (centres undefined) was run?
The survivor count was 1 of 10 on day 14.

And the survivor count [3]?
The survivor count was 0 of 10 on day 14.

And the survivor count [2]?
The survivor count was 0 of 10 on day 14.

With `NC12CC3CC(CC(C3)C1)C2` as the compound, how does the survivor count [9] read?
Its survivor count is 9 of 10 on day 14.

And the survivor count [8]?
Its survivor count is 0 of 10 on day 14.

And the survivor count [11]?
The survivor count was 0 of 10 on day 14.

Which T/C (dose: 50.0 mg/kg/injection, schedule: Q04DX004 (ip), vehicle: saline) does the source give for `O=C[C@@H](CO)O[C@H](C=O)c1c[nH]c(=O)[nH]c1=O` here?
Its T/C is 129 and 139 % of control.

And the T/C (dose: 83.3 mg/kg/injection, schedule: Q04DX004 (ip), vehicle: saline)?
Its T/C is 140 % of control [9 of 10 alive on day 14].

And the survivor count [1]?
Its survivor count is 10 of 10 on day 14.

What about the survivor count [10] of the same compound?
The survivor count was 0 of 10 on day 14 and 4 of 10 on day 14.

How did the survivor count [11] turn out when `C/C([O-])=c1\c(C)nn2ccc[n+]12` was run?
Its survivor count is 4 of 10 on day 14.

What does the source list for `CN(C)CCCN=c1c2ccccc2n(C)c2[nH]c(=O)n(C)c(=O)c12`?
survivor count (dose: 60.0 mg/kg/injection, schedule: Q04DX004 (ip), vehicle: saline): 2 of 10 on day 14; survivor count (dose: 120.0 mg/kg/injection, schedule: Q04DX004 (ip), vehicle: saline): 0 of 10 on day 14

For `COc1ccc(C=C(C(=O)CCN(C)C)C(=O)CCN(C)C)cc1`, which survivor count [3] is on record?
Its survivor count is 6 of 10 on day 14.

Which survivor count [6] does the source give for `O=C1[C@@H]2C3C=CC([C@H]4C(=O)N(CO)C(=O)[C@@H]34)[C@@H]2C(=O)N1CO` here?
Its survivor count is 0 of 10 on day 14.

What does the source list for `OC1(c2ccccc2)c2ccccc2NC2=NCCN21` (centres undefined)?
survivor count [9]: 1 of 10 on day 14; survivor count [8]: 0 of 10 on day 14; survivor count [11]: 0 of 10 on day 14

`CC1=C(C(N)=O)C(c2ccccc2)NC(=S)N1` (centres undefined) was tested. Which survivor count (dose: 400.0 mg/kg/injection, schedule: Q04DX004 (ip), vehicle: Klucel (hydroxypropylcellulose) (HPC)) did it give?
Its survivor count is 5 of 10 on day 14.

What about the survivor count [6] of the same compound?
The survivor count was 0 of 10 on day 14.

With `CC(=O)OCc1cc(-c2nc3ccccc3[nH]c2=O)nn1-c1ccc(Cl)cc1` as the compound, how does the survivor count (dose: 50.0 mg/kg/injection, schedule: Q04DX004 (ip), vehicle: distilled water + alcohol) read?
The survivor count was 10 of 10 on day 14.

And the survivor count (dose: 100.0 mg/kg/injection, schedule: Q04DX004 (ip), vehicle: distilled water + alcohol)?
Its survivor count is 8 of 10 on day 14 and 10 of 10 on day 14.

And the survivor count (dose: 200.0 mg/kg/injection, schedule: Q04DX004 (ip), vehicle: distilled water + alcohol)?
The survivor count was 5 of 10 on day 14.

What about the survivor count (dose: 400.0 mg/kg/injection, schedule: Q04DX004 (ip), vehicle: distilled water + alcohol) of the same compound?
Its survivor count is 10 of 10 on day 14.

— PubChem BioAssay AID292 (DTP/NCI, 2004)
